# Test results published in PubChem BioAssay AID1259354 (Paczesny and Yang Labs, IUPUI and University of Michigan, 2018).
# By UniProt entry, the sequences of proteins in these tests, tags left out. Where a name states a change or a piece, a line headed by the entry shows the natural chain unless it says otherwise.
# UniProt Q01638: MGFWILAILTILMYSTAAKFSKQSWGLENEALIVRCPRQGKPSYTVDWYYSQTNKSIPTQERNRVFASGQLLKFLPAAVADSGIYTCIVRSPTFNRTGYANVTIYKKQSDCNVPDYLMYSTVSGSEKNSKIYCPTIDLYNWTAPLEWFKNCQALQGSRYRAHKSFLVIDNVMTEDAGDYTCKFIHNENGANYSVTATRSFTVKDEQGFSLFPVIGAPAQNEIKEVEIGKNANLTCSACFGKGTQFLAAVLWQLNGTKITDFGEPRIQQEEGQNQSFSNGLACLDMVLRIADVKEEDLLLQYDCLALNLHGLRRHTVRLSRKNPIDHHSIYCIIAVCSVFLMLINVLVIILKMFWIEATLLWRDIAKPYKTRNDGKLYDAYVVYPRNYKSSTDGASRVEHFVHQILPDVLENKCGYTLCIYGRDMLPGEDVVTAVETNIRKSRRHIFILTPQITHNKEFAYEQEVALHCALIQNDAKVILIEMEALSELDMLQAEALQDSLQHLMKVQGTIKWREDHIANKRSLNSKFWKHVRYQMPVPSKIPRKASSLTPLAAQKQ
# Several values for one entry are separate records, joined by “and”; a condition that tells them apart may be missing. Equal values may be shown once. The whole screen tested about 78,000 compounds, of which about 1,800 (2.3%) were called active. This list was built around the results that the source calls inconclusive (neither active nor inactive); the mix of calls is not that of the screen. Cut-off read from the data, not from the text of the source: active = inhibition above about 30%; inconclusive = mostly about 10% to 28%; inactive = weaker than that.
# Biological target: Interleukin-1 receptor-like 1 (Homo sapiens) (UniProt Q01638)
# Test: blocks human ST2 binding to IL-33, primary screen, biochemical, AlphaLISA (AID 1259354)
# Conditions: AlphaLISA ST2-Fc/biotin-IL-33 interaction, 1 h; at 17 µM, stronger effect = higher value
row,SMILES,inhibition
1,NC(=O)c1nc(C(N)=O)c(C(=O)O)cc1C(=O)O,inactive
2,COCc1cc(C)nc(SCC(=O)c2ccc(Cl)cc2)c1C#N,active: 30% and inconclusive: 28%
3,CS(=O)(=O)c1ccc(C(=O)Nc2cnc3n2CCCC3)cc1,inconclusive: 16%
4,Cc1nnc(NC(=O)CSc2cn(Cc3ccc(F)cc3)c3ccccc23)s1,inconclusive: 10%
5,O=C1Nc2ccccc2C(O)(C(=O)NCCC2=CCCCC2)N1c1ccc(Cl)cc1 (centres undefined),inactive
6,CCCc1ccc(OCc2nnc(N)s2)cc1,inactive
7,CC(C)n1cnnc1CN(C)C(=O)CC1C(=O)NCCN1CC1CCCCC1 (centres undefined),inactive
8,O=C(Cn1cnc2c(cnn2-c2ccccc2)c1=O)Nc1ccc(Cl)c(Cl)c1,inactive
9,CC1(C)C(=O)NC(=O)N1CC(=O)N1CCOC(CCCc2ccccc2)C1 (centres undefined),inconclusive: 16%
10,CCc1ccc(C2=C(C)C(=O)N(CC(=O)Nc3cc(Cl)ccc3OC)S2(=O)=O)cc1,inconclusive: 18%
11,COc1ccc(-c2ccnc(N[C@H]3CO[C@H]4[C@@H]3OC[C@@H]4NC(=S)NCC(C)C)n2)cc1,inactive
12,CCOc1c(C)cc(S(=O)(=O)N2CCN(c3nc(C)cc(N(C)C)n3)CC2)cc1C,inconclusive: 17%
13,N#C/C(=C\c1ccc(-c2ccc3c(c2)C(=O)NC3=O)o1)c1nc2ncc(Br)cc2[nH]1,active: 33%
14,Cc1ccc(C)c(S(=O)(=O)Nc2ccc3oc4c(c3c2)CCCC4)c1,inconclusive: 21%
15,Cc1ccc(-c2ccc(CCC(=O)O)[nH]2)cc1,active: 35%
16,COc1ccc(-c2cc(N3CCCC3)nc(N)n2)c(OC)c1,inconclusive: 14%
17,COc1ccc(C)cc1S(=O)(=O)N1CCC(CCC(=O)Nc2cccc(C)c2)CC1,inactive
18,O=C(CSCc1ccccc1Cl)Nc1ccc(F)cc1,inactive
19,CCOC(=O)CNC(=O)N1CCC(CCOc2ccccc2)(C(=O)OCC)CC1,inconclusive: 14%
20,CCC1CN(C(=O)c2ccc(-c3cccc(CO)c3)nc2)CCN1C(C)C (centres undefined),inactive
21,Cc1ccsc1/C=C1\SC(c2ccccc2)=NC1=O,inconclusive: 29%
22,CC(C)(C)CC(NC(=O)c1ccc2nc[nH]c2c1)c1cccnc1 (centres undefined),inconclusive: 10%
23,Nc1c(C(=O)Nc2ccc(Br)cc2)nnn1Cc1ccc(F)cc1,inactive
24,COc1cc(/C=C2\N=C(SC)SC2=O)ccc1OCc1ccccc1,inconclusive: 19%

# Part of the list above, set out differently:
row | SMILES | inhibition
1 | NC(=O)c1nc(C(N)=O)c(C(=O)O)cc1C(=O)O | inactive
2 | COCc1cc(C)nc(SCC(=O)c2ccc(Cl)cc2)c1C#N | active: 30% and inconclusive: 28%
3 | CS(=O)(=O)c1ccc(C(=O)Nc2cnc3n2CCCC3)cc1 | inconclusive: 16%
4 | Cc1nnc(NC(=O)CSc2cn(Cc3ccc(F)cc3)c3ccccc23)s1 | inconclusive: 10%
5 | O=C1Nc2ccccc2C(O)(C(=O)NCCC2=CCCCC2)N1c1ccc(Cl)cc1 (centres undefined) | inactive

# (continued)

row,SMILES,inhibition
1,Cc1cccc(N(C(=O)c2ccccc2)C2C=CS(=O)(=O)C2)c1 (centres undefined),inconclusive: 13%
2,Cc1ccc(Cl)c(-c2nccn2CCN2CCCOC2=O)c1F,inconclusive: 17%
3,C=CCNc1ccccc1C(=O)N1CC[C@H](O)C[C@@H]1C(=O)O,inactive
4,Cc1ccc2nc(-c3ccccn3)c(Nc3ccc4c(c3)OCO4)n2c1,active: 32%
5,NC(=O)c1cnc2n1CCN(C(=O)c1ccc3c(c1)CCO3)C2,inconclusive: 10%
6,COc1ccc(CCNC(C)=O)cc1OC,inactive
7,CCOC1C(OCC)N(S(=O)(=O)c2ccccc2)CCN1S(=O)(=O)c1ccccc1 (centres undefined),inactive
8,Cc1ccc(Cn2c(CNS(=O)(=O)c3ccc(F)c(Cl)c3)nc3cccnc32)cc1,inconclusive: 23%
9,Cc1cccc(C)c1NC(=O)C1(N(C)C(=O)Cc2nc(N)n[nH]2)CCCCC1,inactive
10,O=C(C1CC1)N1CCc2cc(Br)cc(S(=O)(=O)Nc3ccc(F)cc3Cl)c21,inconclusive: 20%
11,CC(=O)N1CCc2cc(Br)cc(S(=O)(=O)CC(=O)Nc3ccc(C)cc3C)c21,inactive
12,O=S(=O)(c1ccc(Cl)c(Cl)c1Cl)N1CCOCC1,inactive
13,Cc1ccc(C#N)c(SCC(=O)c2ccccc2)n1,inconclusive: 14%
14,O=C(c1ccc2c(c1)OCO2)N1CCN=C1SCc1cccc(Cl)c1,inactive
15,COc1ccc(CNS(=O)(=O)c2cc(Cl)ccc2Cl)cc1,inactive
16,NC(=O)[C@@H](Cc1ccccc1)NC(=O)[C@@]1(O)C[C@@H](O)[C@H](O)[C@@H](NC(=O)c2cccnc2)C1,inconclusive: 13%
17,COc1ccc(OC)c(NC(=O)CN(c2ccc(C(C)C)cc2)S(C)(=O)=O)c1,inconclusive: 19%
18,CC1=NN(c2ccc(C(=O)O)cc2)C(=O)/C1=C\c1ccc(Br)cc1,inactive
19,Cc1cc2c(cc1S(=O)(=O)N1CCCC1C(=O)NC1CCCCC1)OCC(=O)N2 (centres undefined),inconclusive: 11%
20,CCOc1ccc(N2COc3ccc4ccccc4c3C2)cc1,inconclusive: 12%
21,COc1ccc(-c2cc(C(F)(F)F)nc(-n3ccnc3)n2)cc1,inconclusive: 11%
22,O=C1CCC(C(=O)N2CCC(Cn3cccn3)CC2)CN1CC1CCCCC1 (centres undefined),inconclusive: 13%
23,CCN1CCCC1CNC(=O)CCC1CCN(C(=O)C2=CCCCC2)CC1 (centres undefined),inconclusive: 13%
24,O=C(Cc1c(C(=O)O)[nH]c2ccc(Cl)cc12)Nc1ccc(C(F)(F)F)cc1,inactive

row,SMILES,inhibition
1,CCN1/C(=C2\C(=O)N(c3ccccc3)N=C2C)C=Cc2ccccc21,inconclusive: 18%
2,CC(=O)Nc1ccc(CN2CC[C@H](c3nnc(-c4cccnc4)o3)C2)cc1,inconclusive: 17%
3,COc1ccc(C(C[N+](=O)[O-])Sc2cccc3cccnc23)cc1 (centres undefined),inconclusive: 17%
4,Nc1ccc(CC(C(=O)O)c2ccccc2)cc1 (centres undefined),inactive
5,O=C(NCc1cccs1)C1CCN(S(=O)(=O)c2cccc3cccnc23)CC1,inconclusive: 14%
6,COc1ccc(C(=O)Nc2cc3cccc([N+](=O)[O-])c3oc2=O)c(Cl)c1,inconclusive: 16%
7,CC1=C(C(=O)Nc2ccc(C)cc2C)C(c2ccc(C(C)C)cc2)n2nnnc2N1 (centres undefined),inconclusive: 15%
8,O=C(C(Cc1ccc(O)cc1)c1ccccc1)N1CCn2cncc2C1 (centres undefined),inconclusive: 19%
9,CCn1cc(/C=C2/C(=O)NN(c3ccc(Br)cc3)C2=O)c2ccccc21,inconclusive: 24%
10,CSc1nc2n(n1)C(c1ccc(Br)cc1)C(C(=O)Nc1ccccc1)=C(C)N2 (centres undefined),inactive
11,Cc1ccc(-c2noc(CCC(=O)Nc3ccc(Br)cc3C)n2)cc1,inconclusive: 14%
12,Cc1nnc(NC(=O)CSC2=NCCS2)s1,inconclusive: 11%
13,Cc1ccc(C(=O)N2CCN=C2SCc2ccccc2F)cc1,inconclusive: 14%
14,CN(C)c1ccc(C2C(N3C(=O)c4ccccc4C3=O)C(=O)N2c2ccc(Cl)cc2)cc1 (centres undefined),inconclusive: 22%
15,O=C(Nc1c(F)cccc1F)C(NS(=O)(=O)c1cccs1)c1ccccc1 (centres undefined),inactive
16,Cc1cnc(-c2nc(C(C)C)nn2-c2cccc3cccnc23)cn1,inconclusive: 18%
17,CC(C)(C)C(=O)Nc1ncc(S(=O)(=O)c2ccc([N+](=O)[O-])cc2)s1,inconclusive: 20%
18,CCNC(=O)c1ccnc(N2CCC(CO)(Cc3ccccc3Cl)CC2)c1,inconclusive: 13%
19,CC(C)Cc1ccc2c(N)c(C(=O)O)sc2n1,inactive
20,COc1ccccc1NC(=O)c1ccc(Oc2ccc(C(F)(F)F)cc2[N+](=O)[O-])cc1,inconclusive: 23%
21,CCCCOc1ccc(C(=O)Nc2ccc(OCC)cc2[N+](=O)[O-])cc1,inactive
22,Cc1ccc(CCNC(=O)C(NS(=O)(=O)c2ccc3c(c2)oc(=O)n3C)C(C)C)cc1 (centres undefined),inconclusive: 15%
23,Cc1cc(N2N=C(c3ccccc3)CC2=O)nc(-c2ccccc2O)n1,active: 31%
24,COc1ccc(-c2c(-c3ccccc3)ncn2CCc2cnc[nH]2)c(F)c1F,inconclusive: 14%

# Some of these compounds in order of molecular weight, high to low:
row,SMILES,inhibition
6,COc1ccc(C(=O)Nc2cc3cccc([N+](=O)[O-])c3oc2=O)c(Cl)c1,inconclusive: 16%
1,CCN1/C(=C2\C(=O)N(c3ccccc3)N=C2C)C=Cc2ccccc21,inconclusive: 18%
4,Nc1ccc(CC(C(=O)O)c2ccccc2)cc1 (centres undefined),inactive

# (cont.)

row,SMILES,inhibition
1,OCCC1CN(Cc2nc3ccc(F)cc3[nH]2)CCN1Cc1ccc(F)cc1 (centres undefined),inactive
2,CC(C)NC(=O)[C@@H]1C[C@@H](N)CN1Cc1cccn1-c1ccccn1,inactive
3,CC(C)c1noc([C@@H]2C[C@H](NC(=O)NC3CCCCC3)CN2C)n1,inactive
4,CC(CC12CCCN1C(=O)C1CCCN1C2=O)OC(N)=O (centres undefined),inconclusive: 12%
5,NC1=NC(=O)C(CC(=O)Nc2ccc(Cl)c(C(F)(F)F)c2)S1 (centres undefined),inconclusive: 12%
6,CCN(CC)C(=O)Cn1c(=O)n(CC2CCC(C(=O)N(CC)CC)CC2)c(=O)c2sccc21 (centres undefined),inactive
7,CCn1cc(SCC(=O)N2CCC3(CC2)CNC(=O)C3)c2ccccc21,inactive
8,COc1cccc(C2NC(=O)NC(C)=C2C(=O)OCCOc2ccccc2)c1 (centres undefined),inconclusive: 10%
9,CC[N+](C)(C)c1cccc(O)c1,inconclusive: 12%
10,CCOc1ccc(CN2CCN(CC3CCCCC3)C(CCO)C2)cc1CO (centres undefined),inconclusive: 18%
11,COc1ccc(CN2CCCN(CC(=O)Nc3ccc(F)cc3F)S2(=O)=O)cc1,inactive
12,CCCCNC(=O)c1cn(CC)c2ccc(S(=O)(=O)N3CCc4ccccc4C3)cc2c1=O,inactive
13,CCOC(=O)c1c(NC(=O)C2=COCCO2)sc2c1CCN(Cc1ccccc1)C2,inconclusive: 12%
14,O=C1c2ccccc2C(=O)C1c1cccc2c1CCCC2,inactive
15,CC(=O)NCC1CCCN(Cc2cnc(S(C)(=O)=O)n2CC(C)C)C1 (centres undefined),inconclusive: 11%
16,O=C(CCc1cc(Cl)no1)N1CCOC(c2ccc(Cl)cc2)C1 (centres undefined),inconclusive: 26%
17,COc1ccc(-c2ccnc(CO)c2)c(OC)c1,inconclusive: 14%
18,CC1(C)CC(=O)C2=C(C1)Nc1[nH]c(=O)[nH]c(=O)c1C2c1ccccc1 (centres undefined),inactive
19,OCCN=c1scc(-c2ccc(Br)cc2)n1-c1ccccc1,active: 49% and active: 39%
20,COc1cc(N/C=C(/C#N)c2nc(-c3ccc([N+](=O)[O-])cc3)cs2)c(OC)cc1Cl,inconclusive: 11%
21,O=C(CNS(=O)(=O)c1ccc(Br)s1)N1CCN(c2ccccc2Cl)CC1,inactive
22,CCOC(=O)Cn1c(=O)n(-c2ccc(F)cc2)c2nc(-c3ccccc3C)nc(C(N)=O)c21,inactive
